Assay results published in PubChem BioAssay (EPA / NIEHS).
Where “and” joins values, the source holds several entries; their conditions need not be identical. Identical values can stand only once. The shares of active, inactive and inconclusive entries below differ from those in the screen. For some assays here: Potencies of inconclusive entries are doubtful fits and often do not repeat. Calls of active or inactive are those of the source. The calls were made as follows: active = hit-call score of the fitted dose curve at least 0.9, where 1 is the maximum; inconclusive = response in the unintended direction; inactive = score below 0.9.

The chains behind the UniProt entries cited, without tags or fusion partners. Where a name states a change or a piece, a line headed by the entry shows the natural chain unless it says otherwise.
UniProt P10275: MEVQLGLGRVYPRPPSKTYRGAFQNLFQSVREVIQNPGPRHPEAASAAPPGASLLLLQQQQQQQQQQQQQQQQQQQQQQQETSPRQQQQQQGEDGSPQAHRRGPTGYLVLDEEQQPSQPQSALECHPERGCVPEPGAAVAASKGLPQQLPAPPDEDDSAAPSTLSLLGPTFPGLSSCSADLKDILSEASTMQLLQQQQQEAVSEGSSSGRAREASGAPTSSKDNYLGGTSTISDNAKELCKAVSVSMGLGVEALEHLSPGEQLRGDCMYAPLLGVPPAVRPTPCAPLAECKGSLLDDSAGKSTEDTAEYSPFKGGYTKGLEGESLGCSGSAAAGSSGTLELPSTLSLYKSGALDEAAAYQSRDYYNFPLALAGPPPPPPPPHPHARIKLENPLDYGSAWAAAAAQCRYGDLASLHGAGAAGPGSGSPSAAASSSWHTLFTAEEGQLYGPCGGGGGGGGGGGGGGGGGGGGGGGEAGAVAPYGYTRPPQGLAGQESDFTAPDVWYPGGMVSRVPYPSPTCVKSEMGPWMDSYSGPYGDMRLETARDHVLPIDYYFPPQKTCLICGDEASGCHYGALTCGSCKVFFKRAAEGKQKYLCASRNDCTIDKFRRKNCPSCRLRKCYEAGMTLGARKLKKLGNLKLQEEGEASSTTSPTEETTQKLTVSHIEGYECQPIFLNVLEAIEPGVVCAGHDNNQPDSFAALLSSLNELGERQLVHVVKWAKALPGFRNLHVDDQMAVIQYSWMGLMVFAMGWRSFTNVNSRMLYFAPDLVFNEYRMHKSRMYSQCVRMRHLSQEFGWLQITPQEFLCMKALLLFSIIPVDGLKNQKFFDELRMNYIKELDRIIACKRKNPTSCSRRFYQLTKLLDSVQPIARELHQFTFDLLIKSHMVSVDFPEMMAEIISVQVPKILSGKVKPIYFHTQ
UniProt Q07869: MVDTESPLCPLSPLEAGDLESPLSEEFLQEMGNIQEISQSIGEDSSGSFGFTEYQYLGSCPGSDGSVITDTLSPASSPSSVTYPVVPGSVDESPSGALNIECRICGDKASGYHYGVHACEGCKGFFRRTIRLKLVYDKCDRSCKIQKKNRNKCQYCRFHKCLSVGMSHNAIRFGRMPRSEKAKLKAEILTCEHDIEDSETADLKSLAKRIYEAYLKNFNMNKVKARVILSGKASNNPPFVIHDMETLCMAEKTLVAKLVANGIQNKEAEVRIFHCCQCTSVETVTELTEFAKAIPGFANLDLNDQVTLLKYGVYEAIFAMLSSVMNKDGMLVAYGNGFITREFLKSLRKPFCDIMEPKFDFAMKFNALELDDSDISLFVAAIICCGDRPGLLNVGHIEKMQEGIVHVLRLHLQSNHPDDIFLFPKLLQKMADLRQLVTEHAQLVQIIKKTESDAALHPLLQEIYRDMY
UniProt P10276, whole entry, looked up: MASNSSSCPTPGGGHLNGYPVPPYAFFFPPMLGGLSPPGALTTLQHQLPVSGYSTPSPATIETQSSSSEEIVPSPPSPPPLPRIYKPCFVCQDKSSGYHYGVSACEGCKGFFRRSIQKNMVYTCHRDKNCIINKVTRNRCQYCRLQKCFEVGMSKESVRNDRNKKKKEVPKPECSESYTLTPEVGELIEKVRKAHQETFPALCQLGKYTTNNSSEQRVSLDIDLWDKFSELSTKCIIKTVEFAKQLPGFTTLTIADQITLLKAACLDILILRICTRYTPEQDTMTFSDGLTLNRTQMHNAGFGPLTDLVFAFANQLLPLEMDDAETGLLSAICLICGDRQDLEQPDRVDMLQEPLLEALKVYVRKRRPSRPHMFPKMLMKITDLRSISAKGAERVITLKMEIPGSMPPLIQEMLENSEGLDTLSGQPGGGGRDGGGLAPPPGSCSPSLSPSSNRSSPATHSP

Assays:
[1] = target: Androgen Receptor/SRC-1 Co-activator, AR (gene 367) (UniProt P10275); assay: OT_AR_ARSRC1_0480: Odyssey Thera (OT) 8-hour HEK293T Protein-Complementation Assay for Androgen Receptor/SRC-1 Co-activator (AID 2283354);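 also: hits raise the complementation signal above DMSO so AC50 marks enhancers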
Method in brief: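 After 8 h dosing, stably expressing HEK293T cells with split-Venus AR/SRC-1 fusions were imaged (488, 635nm). The 488nm N/C ratio per image gave the endpoint, analysed in the positive direction against DMSO.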

[2] = target: human Peroxisome Proliferator-activated Receptor alpha (PPARa), PPARA (gene 5465) (UniProt Q07869); assay: NVS_NR_hPPARa: NovaScreen (NVS) Nuclear Receptor Binding Assay for human Peroxisome Proliferator-activated Receptor alpha (PPARa) (AID 2283359);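 also: activity means loss of TR-FRET signal versus DMSO baseline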
Method in brief: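 One-hour incubation, cell-free extracted protein, TR-FRET binding readout; signal loss vs DMSO scored. Screen: 25 uM duplicates, confirmatory dose series for actives.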

[3] = target: Retinoic acid receptor alpha (Homo sapiens) (UniProt P10276); assay: NVS_NR_hRAR_Antagonist: NovaScreen (NVS) Nuclear Receptor Binding Assay for human Retinoic Acid Alpha Receptor Antagonism (RAR) (AID 2283358)
Method in brief: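 Chemicals were first tested in duplicate at 25 uM, then actives in concentration series, in a cell-free TR-FRET antagonist binding format. Measurements were taken 2 hours after dosing and loss of signal was evaluated against DMSO controls.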

CCCCCCCCN(C)CCCCCCCC
AC50 [1]: inconclusive: 50.5 µM | AC50 [2]: inconclusive: 25.2 µM

CCN(CC)CCOc1ccc(C(=C(Cl)c2ccccc2)c2ccccc2)cc1
AC50 [3]: active: 16.1 µM and active: 11 µM and active: 12.5 µM

Cc1c2ccccc2c(C)c2c1ccc1ccccc12
outcome [2]: inactive

Oc1ccc(Cl)cc1Cc1cc(Cl)ccc1O
AC50 [2]: active: 14 µM
